Data taken from patent US20090197851A1, “THERAPY AND USE OF COMPOUNDS IN THERAPY” (MAX-DELBRUCK-CENTRUM FUR MOLEKULARE MEDIZIN, priority 1999, published 2009).
For at least one compound, name, drawing or mass did not settle the structure.

Tests used:
[1] = tested on: plasma levels of TNF and IL6; spontaneous and LPS-stimulated whole blood cytokine production; test: Therapeutic application of UDCA in patients with cachexia due to liver cirrhosis: plasma cytokines and whole blood cytokine production; assay type: in vivo, human; conditions: 3 times 250 mg daily UDCA
[2] = tested on: monocyte generated cytokine production in response to LPS; conditions: in the concentrations used; Greve et al. Hepatology 1989; cited from earlier work
endotoxaemia = conditions: UDCA-treated rats with obstructive jaundice, LPS via the portal vein, cited from earlier work
chronic hepatitis C = conditions: patients with chronic hepatitis C, cited from earlier work
[3] = patient 4, after 1 and 2 days of treatment

SMILES: C[C@H](CCC(=O)O)[C@H]1CC[C@H]2[C@@H]3[C@@H](O)C[C@@H]4C[C@H](O)CC[C@]4(C)[C@H]3CC[C@]12C [UDCA, ursodeoxycholic acid]
- plasma levels of TNF ([1]; patient 1, 5 days of treatment): lower
- spontaneous production of IL6 in whole blood [1, 3]: reduced substantially to almost undetectable levels
- spontaneous production of TNF in whole blood [1, 3]: reduced substantially to almost undetectable levels
- effectiveness on monocyte generated cytokine production in response to LPS [2]: ineffective
- TNF-alpha levels (endotoxaemia): no effect
- endotoxin concentration (endotoxaemia; intravenous administration): significantly lower
- serum TNF and IL-6 levels (chronic hepatitis C; UDCA treatment): could not be shown to be affected
- clinical benefit (chronic hepatitis C; case control study): no clinical benefit
